# Source: PubChem BioAssay AID652259 (Drosophila RNAi Screening Center, 2013)
# Test: 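Genome-wide hunt for genes that control Wingless pathway activity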 (primary screen)
# System: Drosophila clone 8 imaginal disc epithelial cells
# Reagents: long dsRNA against Drosophila genes
# Challenge: pathway stimulated by co-transfected Wingless expression plasmid
# Measured: 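Firefly luciferase from a tcf-site Wingless reporter, measured alongside co-transfected Renilla luciferase that tracks transfection; pathway stimulated by a Wingless plasmid; the firefly-to-Renilla ratio is not deposited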
# Direction: firefly reporter light: higher = more Wg reporter light, before normalisation; Renilla control light: higher = more transfected or surviving cells
# Active means: 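a knock-down is a candidate when at least two out of four statistical tests show it departing from its plate mean; one test alone signals a weak candidate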
# Meaning of the calls: active = candidate regulator (raises or lowers reporter); inactive = not a candidate
# In all, the deposit lists about 22,000 reagents; below is a random part of those that have a named target and a result. Of all reagents, 233 (1.1%) are marked active. 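Light values are raw, unnormalised plate reads; the ratio scores behind the reporter calls were not deposited.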 Names joined by + are all predicted targets of the reagent. Not given: the amount of reagent, the time to read-out, the dose of the treatment.
Gene,DRSC id,"reporter change call, replicate 1","firefly reporter light, replicate 1","firefly reporter light, replicate 2","Renilla control light, replicate 1","Renilla control light, replicate 2",Call
CG13653,DRSC14653,,15908,,14699,,inactive
CG4291,DRSC00650,,12241,,4441,,inactive
Ilp5,DRSC08998,,4848,,2167,,inactive
amrt,DRSC19378,,13075,,9584,,inactive
CG8508,DRSC16436,,9082,,3513,,inactive
Arp1,DRSC14118,,13552,,3572,,inactive
PNUTS,DRSC00638,,6404,,3752,,inactive
PNUTS,DRSC22136,,7.56e5,7.42e5,3.29e5,3.59e5,inactive
Nprl2,DRSC20153,,2356,5572,736,1576,inactive
Rdh,DRSC08063,,1909,,310,,inactive
Rdh,DRSC08434,Wg reporter activity raised,4086,,871,,inactive
CG7910,DRSC16341,,23606,,5266,,inactive
CG4660,DRSC18378,,19953,,9138,,inactive
msk,DRSC11340,,12023,,2483,,inactive
CG13506,DRSC04150,,2068,6269,288,2839,inactive
CG6845,DRSC08576,,13580,,4736,,inactive
CG8841,DRSC07286,,7578,,2231,,inactive
Syx17,DRSC08591,,7293,,2625,,inactive
Lim3,DRSC02475,,6476,10000,1634,4598,inactive
Lim3,DRSC03363,Wg reporter activity raised,6890,15733,489,1436,active
Lim3,DRSC22183,,8.80e5,7.80e5,1.15e5,1.07e5,inactive
Lim3,DRSC22650,,4.76e5,4.52e5,56007,44997,inactive
asRNA:CR42743 + CG34162,DRSC01190,,17484,,9411,,inactive
Oseg4,DRSC08548,,12744,,3504,,inactive
CG43218,DRSC11475,,3081,,1737,,inactive
foi,DRSC10719,,3929,11901,1275,3432,inactive
HP6,DRSC00471,,1555,5517,787,1881,inactive
CG11300,DRSC04104,,2565,8019,636,2790,inactive
Gip,DRSC18667,,2675,,1203,,inactive

Reprinted from the entries so far for reference:
Gene,DRSC id,"reporter change call, replicate 1","firefly reporter light, replicate 1","firefly reporter light, replicate 2","Renilla control light, replicate 1","Renilla control light, replicate 2",Call
amrt,DRSC19378,,13075,,9584,,inactive
CG8508,DRSC16436,,9082,,3513,,inactive
